{
  "source": "patent US20090156504A1",
  "about": "“METHODS OF TREATING BLOOD CELL DEPLETION” (ImmuneRegen Biosciences, Inc., priority 2007, published 2009)",
  "tested_on": "B-lymphocyte-Colony Forming Cells (B-CFC)",
  "experiment": "CFC differentiation assay, B-CFC",
  "assay_type": "cell-based, human",
  "settings": "Example 5, donors 2 and 3, optimal",
  "note": "Not every detail of the peptide structures is certain; ends, links or a residue may be inferred.",
  "data": [
    {"smiles": "CC(C)C[C@H](NC(=O)CN(C)C(=O)[C@H](Cc1ccccc1)NC(=O)[C@H](Cc1ccccc1)NC(=O)[C@H](CCC(N)=O)NC(=O)[C@H](CCC(N)=O)NC(=O)[C@@H]1CCCN1C(=O)[C@H](CCCCN)NC(=O)[C@@H]1CCCN1C(=O)[C@@H](N)CCCNC(=N)N)C(=O)N[C@@H](CCS(C)(=O)=O)C(N)=O", "note": "[Homspera®]", "values": [
      {"measurement": "dose at peak value", "value": 0.001, "unit": "pM"}
    ]}
  ]
}
